Experimental data reported in the supplement of paper PMC5355238.
Structures can show the parent of a compound that is named as a salt. Some of the results follow. Most values lie at the level of the controls, where differences are scatter.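 Reh is a human leukemia cell line; the read-out is the median γH2AX antibody signal in S-phase cells by flow cytometry, with the score counting standard deviations from the median difference of each paired set of plates. Scores above 2.5 were called candidate hits, while scores below -2 mark compounds that lowered the MK1775-induced damage.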

Tested on: Reh
Test: Z' of S-phase gammaH2AX difference (drug + MK1775 minus drug alone) (Z-score); higher = stronger synergistic S-phase DNA damage with MK1775
Details: MK1775 concentration 400 nM; first compound 10 µM; 4 h

Row | Compound | Z' of S-phase gammaH2AX difference (Z-score)
1 | COC(=O)Nc1ccc(-c2nc(N3CCOCC3)c3cnn(C4CCN(C(=O)OC)CC4)c3n2)cc1 + C=CCn1c(=O)c2cnc(Nc3ccc(N4CCN(C)CC4)cc3)nc2n1-c1cccc(C(C)(C)O)n1 [MK1775] | inactive: -0.112
2 | CCCCCCCCCC[Si](C)(C)CCC(=O)NC(Cc1ccc(C)cc1)c1ccccc1 (stereo not given) [Sandoz 58-035] + C=CCn1c(=O)c2cnc(Nc3ccc(N4CCN(C)CC4)cc3)nc2n1-c1cccc(C(C)(C)O)n1 [MK1775] | inactive: -0.611
3 | COc1ccccc1NC(=O)Nc1nc(-c2cccnc2)nc2ccccc12 + C=CCn1c(=O)c2cnc(Nc3ccc(N4CCN(C)CC4)cc3)nc2n1-c1cccc(C(C)(C)O)n1 [MK1775] | inactive: 0.524
4 | COCc1nc2c([nH]1)c(=O)n(C)c(=O)n2CC(C)C [8-Methoxymethyl-3-isobutyl-1-methylxanthine] + C=CCn1c(=O)c2cnc(Nc3ccc(N4CCN(C)CC4)cc3)nc2n1-c1cccc(C(C)(C)O)n1 [MK1775] | inactive: 0.262
5 | NC(=O)OCC(COC(N)=O)c1ccccc1 [Felbamate] + C=CCn1c(=O)c2cnc(Nc3ccc(N4CCN(C)CC4)cc3)nc2n1-c1cccc(C(C)(C)O)n1 [MK1775] | inactive: -0.347
6 | CCCCS(=N)(=O)CCC(N)C(=O)O (racemic) [DL-Buthionine-[S,R]-sulfoximine] + C=CCn1c(=O)c2cnc(Nc3ccc(N4CCN(C)CC4)cc3)nc2n1-c1cccc(C(C)(C)O)n1 [MK1775] | inactive: -0.0768
7 | CC(C)n1c(/C=C/C(O)CC(O)CC(=O)O)c(-c2ccc(F)cc2)c2ccccc21 (stereo not given) [Fluvastatin sodium (Lescol)] + C=CCn1c(=O)c2cnc(Nc3ccc(N4CCN(C)CC4)cc3)nc2n1-c1cccc(C(C)(C)O)n1 [MK1775] | inactive: 0.0377
8 | CCCCNc1cc(C(=O)O)cc(S(N)(=O)=O)c1Oc1ccccc1 [Bumetanide] + C=CCn1c(=O)c2cnc(Nc3ccc(N4CCN(C)CC4)cc3)nc2n1-c1cccc(C(C)(C)O)n1 [MK1775] | inactive: -0.00334
9 | Cn1ccnc1 [1-Methylimidazole] + C=CCn1c(=O)c2cnc(Nc3ccc(N4CCN(C)CC4)cc3)nc2n1-c1cccc(C(C)(C)O)n1 [MK1775] | inactive: -0.097
10 | CCN(CC)CCOC(=O)c1ccc(N)cc1 [Procaine hydrochloride] + C=CCn1c(=O)c2cnc(Nc3ccc(N4CCN(C)CC4)cc3)nc2n1-c1cccc(C(C)(C)O)n1 [MK1775] | inactive: 0.767
11 | CC(=O)N[C@@H](CS)C(=O)O [N-Acetyl-L-Cysteine] + C=CCn1c(=O)c2cnc(Nc3ccc(N4CCN(C)CC4)cc3)nc2n1-c1cccc(C(C)(C)O)n1 [MK1775] | inactive: 0.237
12 | C[C@]1(c2nc3c(C(N)=O)cccc3[nH]2)CCCN1 [ABT-888 (Veliparib)] + C=CCn1c(=O)c2cnc(Nc3ccc(N4CCN(C)CC4)cc3)nc2n1-c1cccc(C(C)(C)O)n1 [MK1775] | inactive: 0.274
13 | N#C/C(=C\c1ccc(O)c(O)c1)C(=O)NCCc1ccccc1 [Tyrphostin AG 698] + C=CCn1c(=O)c2cnc(Nc3ccc(N4CCN(C)CC4)cc3)nc2n1-c1cccc(C(C)(C)O)n1 [MK1775] | inactive: -0.274
14 | O=c1cc(-c2ccccc2)[nH]c2nc(Cl)ccc12 [7-Chloro-4-hydroxy-2-phenyl-1,8-naphthyridine] + C=CCn1c(=O)c2cnc(Nc3ccc(N4CCN(C)CC4)cc3)nc2n1-c1cccc(C(C)(C)O)n1 [MK1775] | inactive: 0.932
15 | O=C(O)Cc1cccc(OCCCN(Cc2cccc(C(F)(F)F)c2Cl)CC(c2ccccc2)c2ccccc2)c1 + C=CCn1c(=O)c2cnc(Nc3ccc(N4CCN(C)CC4)cc3)nc2n1-c1cccc(C(C)(C)O)n1 [MK1775] | inactive: 0.209
16 | O=c1[nH]c(=O)c2nc3ccccc3nc2[nH]1 [Alloxazine] + C=CCn1c(=O)c2cnc(Nc3ccc(N4CCN(C)CC4)cc3)nc2n1-c1cccc(C(C)(C)O)n1 [MK1775] | inactive: -0.234
17 | CC(=O)O[C@H]1C[C@@]2(C)[C@@H](C[C@@H](O)[C@H]3[C@@]4(C)CC[C@@H](O)[C@@H](C)[C@@H]4CC[C@@]32C)/C1=C(\CCC=C(C)C)C(=O)O [Fusidic acid sodium] + C=CCn1c(=O)c2cnc(Nc3ccc(N4CCN(C)CC4)cc3)nc2n1-c1cccc(C(C)(C)O)n1 [MK1775] | inactive: 0.333
18 | O=c1[nH]c2cc(C(F)(F)F)ccc2n1-c1cc(C(F)(F)F)ccc1O + C=CCn1c(=O)c2cnc(Nc3ccc(N4CCN(C)CC4)cc3)nc2n1-c1cccc(C(C)(C)O)n1 [MK1775] | inactive: -0.34

Row | Compound | Z' of S-phase gammaH2AX difference (Z-score)
19 | N[C@@H](CCCC(=O)O)C(=O)O [L-2-aminoadipic acid] + C=CCn1c(=O)c2cnc(Nc3ccc(N4CCN(C)CC4)cc3)nc2n1-c1cccc(C(C)(C)O)n1 [MK1775] | inactive: 0.0869
20 | Oc1cc2c(cc1O)CN(C(=S)NCCc1ccc(Cl)cc1)CCC2 [Capsazepine] + C=CCn1c(=O)c2cnc(Nc3ccc(N4CCN(C)CC4)cc3)nc2n1-c1cccc(C(C)(C)O)n1 [MK1775] | inactive: 0.104
21 | NC[C@@H](O)c1ccc(O)c(O)c1 [L(-)-Norepinephrine bitartrate] + C=CCn1c(=O)c2cnc(Nc3ccc(N4CCN(C)CC4)cc3)nc2n1-c1cccc(C(C)(C)O)n1 [MK1775] | inactive: -0.0334
22 | Nc1nc(Cl)nc2c1ncn2[C@@H]1O[C@H](COP(=O)(O)OP(=O)(O)OP(=O)(O)O)[C@H](O)C1O (stereo not given in full) [2-Chloroadenosine triphosphate tetrasodium] + C=CCn1c(=O)c2cnc(Nc3ccc(N4CCN(C)CC4)cc3)nc2n1-c1cccc(C(C)(C)O)n1 [MK1775] | inactive: 0.478
23 | COc1ccc2c(c1)c(CC(=O)N1CCOCC1)c(C)n2C(=O)c1ccc(Cl)cc1 [Indomethacin morpholinylamide] + C=CCn1c(=O)c2cnc(Nc3ccc(N4CCN(C)CC4)cc3)nc2n1-c1cccc(C(C)(C)O)n1 [MK1775] | inactive: -0.109
24 | COc1ccc(CCN2CCN(CCCc3ccccc3)CC2)cc1OC + C=CCn1c(=O)c2cnc(Nc3ccc(N4CCN(C)CC4)cc3)nc2n1-c1cccc(C(C)(C)O)n1 [MK1775] | inactive: 0.35
25 | O=C1Cc2c([nH]c3ccc(Br)cc23)-c2ccccc2N1 [Kenpaullone] + C=CCn1c(=O)c2cnc(Nc3ccc(N4CCN(C)CC4)cc3)nc2n1-c1cccc(C(C)(C)O)n1 [MK1775] | inactive: -2.5
26 | CNCCCC12CCC(c3ccccc31)c1ccccc12 [Maprotiline hydrochloride] + C=CCn1c(=O)c2cnc(Nc3ccc(N4CCN(C)CC4)cc3)nc2n1-c1cccc(C(C)(C)O)n1 [MK1775] | inactive: 0.277
27 | C[C@]12C=CC(=O)C=C1CC[C@H]1[C@@H]3C[C@@H](O)[C@](O)(C(=O)CO)[C@@]3(C)C[C@H](O)[C@@]12F [Triamcinolone] + C=CCn1c(=O)c2cnc(Nc3ccc(N4CCN(C)CC4)cc3)nc2n1-c1cccc(C(C)(C)O)n1 [MK1775] | inactive: -0.304
28 | N#Cc1ccc(COC[C@H]2O[C@@H](n3c(NCc4ccc(Cl)c(Cl)c4)nc4c(N)ncnc43)[C@H](O)[C@@H]2O)cc1 + C=CCn1c(=O)c2cnc(Nc3ccc(N4CCN(C)CC4)cc3)nc2n1-c1cccc(C(C)(C)O)n1 [MK1775] | inactive: -0.15
29 | CCCCCCCC/C=C\CCCCCCCC(=O)NCCO [N-Oleoylethanolamine] + C=CCn1c(=O)c2cnc(Nc3ccc(N4CCN(C)CC4)cc3)nc2n1-c1cccc(C(C)(C)O)n1 [MK1775] | inactive: 0.189
30 | CNCC[C@@H](Oc1ccc(C(F)(F)F)cc1)c1ccccc1 [R-(-)-Fluoxetine hydrochloride] + C=CCn1c(=O)c2cnc(Nc3ccc(N4CCN(C)CC4)cc3)nc2n1-c1cccc(C(C)(C)O)n1 [MK1775] | inactive: -0.435
31 | Clc1ccc(C(c2ccc(Cl)cc2)[n+]2ccn(CC(OCc3ccc(Cl)cc3Cl)c3ccc(Cl)cc3Cl)c2)cc1 (stereo not given) [Calmidazolium chloride] + C=CCn1c(=O)c2cnc(Nc3ccc(N4CCN(C)CC4)cc3)nc2n1-c1cccc(C(C)(C)O)n1 [MK1775] | inactive: -0.414
32 | C[C@H]1O[C@@H](n2cc(F)c(=O)[nH]c2=O)[C@H](O)[C@@H]1O [5-fluoro-5'-deoxyuridine] + C=CCn1c(=O)c2cnc(Nc3ccc(N4CCN(C)CC4)cc3)nc2n1-c1cccc(C(C)(C)O)n1 [MK1775] | inactive: -0.138
33 | O=c1c(-c2ccc(O)cc2)coc2cc(O)ccc12 [Daidzein] + C=CCn1c(=O)c2cnc(Nc3ccc(N4CCN(C)CC4)cc3)nc2n1-c1cccc(C(C)(C)O)n1 [MK1775] | inactive: 0.658
34 | CC(C)NC[C@H](O)COc1cccc2ccccc12 [(S)-Propranolol hydrochloride] + C=CCn1c(=O)c2cnc(Nc3ccc(N4CCN(C)CC4)cc3)nc2n1-c1cccc(C(C)(C)O)n1 [MK1775] | inactive: -0.767
35 | CC(=O)CCCCn1c(=O)c2c(ncn2C)n(C)c1=O [Pentoxifylline] + C=CCn1c(=O)c2cnc(Nc3ccc(N4CCN(C)CC4)cc3)nc2n1-c1cccc(C(C)(C)O)n1 [MK1775] | inactive: 0.209

3 records picked at random from the list so far:
Row | Compound | Z' of S-phase gammaH2AX difference (Z-score)
33 | O=c1c(-c2ccc(O)cc2)coc2cc(O)ccc12 [Daidzein] + C=CCn1c(=O)c2cnc(Nc3ccc(N4CCN(C)CC4)cc3)nc2n1-c1cccc(C(C)(C)O)n1 [MK1775] | inactive: 0.658
25 | O=C1Cc2c([nH]c3ccc(Br)cc23)-c2ccccc2N1 [Kenpaullone] + C=CCn1c(=O)c2cnc(Nc3ccc(N4CCN(C)CC4)cc3)nc2n1-c1cccc(C(C)(C)O)n1 [MK1775] | inactive: -2.5
23 | COc1ccc2c(c1)c(CC(=O)N1CCOCC1)c(C)n2C(=O)c1ccc(Cl)cc1 [Indomethacin morpholinylamide] + C=CCn1c(=O)c2cnc(Nc3ccc(N4CCN(C)CC4)cc3)nc2n1-c1cccc(C(C)(C)O)n1 [MK1775] | inactive: -0.109
